The text below walks through data of paper doi:10.1101/2021.01.18.426261.

Amino acid sequences for entries named in this document (tags omitted).
UniProt P49816: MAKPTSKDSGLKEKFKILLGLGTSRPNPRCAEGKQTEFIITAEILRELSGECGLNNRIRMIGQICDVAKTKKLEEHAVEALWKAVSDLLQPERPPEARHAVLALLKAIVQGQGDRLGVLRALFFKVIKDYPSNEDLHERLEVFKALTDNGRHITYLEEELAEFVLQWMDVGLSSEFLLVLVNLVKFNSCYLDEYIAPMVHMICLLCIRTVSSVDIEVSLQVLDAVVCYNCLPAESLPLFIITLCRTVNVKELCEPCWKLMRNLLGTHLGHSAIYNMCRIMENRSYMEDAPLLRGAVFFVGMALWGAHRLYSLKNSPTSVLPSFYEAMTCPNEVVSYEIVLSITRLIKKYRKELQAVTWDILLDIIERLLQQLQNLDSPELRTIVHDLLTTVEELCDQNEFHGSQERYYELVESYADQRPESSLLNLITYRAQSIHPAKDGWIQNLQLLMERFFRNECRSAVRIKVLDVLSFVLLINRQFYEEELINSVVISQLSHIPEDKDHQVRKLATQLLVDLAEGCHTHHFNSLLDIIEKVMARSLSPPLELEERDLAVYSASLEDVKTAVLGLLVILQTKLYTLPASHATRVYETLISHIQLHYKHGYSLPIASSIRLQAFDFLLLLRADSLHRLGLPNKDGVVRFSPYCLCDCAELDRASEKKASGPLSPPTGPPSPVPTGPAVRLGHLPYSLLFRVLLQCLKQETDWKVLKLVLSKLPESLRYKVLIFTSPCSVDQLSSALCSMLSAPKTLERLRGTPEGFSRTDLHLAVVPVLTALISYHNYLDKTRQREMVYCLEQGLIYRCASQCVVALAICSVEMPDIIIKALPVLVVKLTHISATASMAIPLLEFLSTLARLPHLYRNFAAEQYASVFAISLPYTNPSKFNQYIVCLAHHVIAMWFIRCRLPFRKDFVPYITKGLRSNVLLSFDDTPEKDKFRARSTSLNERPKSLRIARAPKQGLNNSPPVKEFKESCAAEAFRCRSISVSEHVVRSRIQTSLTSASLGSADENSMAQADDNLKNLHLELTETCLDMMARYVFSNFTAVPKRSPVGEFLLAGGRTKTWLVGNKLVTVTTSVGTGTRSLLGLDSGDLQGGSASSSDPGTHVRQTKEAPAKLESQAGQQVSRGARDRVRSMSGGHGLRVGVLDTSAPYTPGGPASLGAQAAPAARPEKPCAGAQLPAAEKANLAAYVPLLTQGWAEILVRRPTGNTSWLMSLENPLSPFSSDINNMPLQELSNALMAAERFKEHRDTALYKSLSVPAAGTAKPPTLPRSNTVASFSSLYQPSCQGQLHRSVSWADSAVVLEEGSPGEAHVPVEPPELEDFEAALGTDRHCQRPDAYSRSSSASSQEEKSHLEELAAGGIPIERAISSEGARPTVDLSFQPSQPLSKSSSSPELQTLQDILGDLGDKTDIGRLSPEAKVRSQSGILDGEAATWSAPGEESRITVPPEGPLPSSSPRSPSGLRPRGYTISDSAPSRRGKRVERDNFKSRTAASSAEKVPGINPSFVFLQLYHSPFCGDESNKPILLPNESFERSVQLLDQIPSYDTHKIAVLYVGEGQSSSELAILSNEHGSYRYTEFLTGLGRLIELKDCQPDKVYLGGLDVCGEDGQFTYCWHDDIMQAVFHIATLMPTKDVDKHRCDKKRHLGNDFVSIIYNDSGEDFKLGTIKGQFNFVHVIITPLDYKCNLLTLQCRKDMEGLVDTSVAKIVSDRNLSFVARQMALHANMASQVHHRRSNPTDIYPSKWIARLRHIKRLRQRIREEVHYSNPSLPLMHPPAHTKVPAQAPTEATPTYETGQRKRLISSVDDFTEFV

For experiment [1], the target named is TSC2 (rat brain) (rat (endogenous in brain)) (UniProt P49816). The experiment is described as follows: co-IP.
For another experiment, the target named is T1, TSC1 (human) (UniProt Q92574).
T1 sequence: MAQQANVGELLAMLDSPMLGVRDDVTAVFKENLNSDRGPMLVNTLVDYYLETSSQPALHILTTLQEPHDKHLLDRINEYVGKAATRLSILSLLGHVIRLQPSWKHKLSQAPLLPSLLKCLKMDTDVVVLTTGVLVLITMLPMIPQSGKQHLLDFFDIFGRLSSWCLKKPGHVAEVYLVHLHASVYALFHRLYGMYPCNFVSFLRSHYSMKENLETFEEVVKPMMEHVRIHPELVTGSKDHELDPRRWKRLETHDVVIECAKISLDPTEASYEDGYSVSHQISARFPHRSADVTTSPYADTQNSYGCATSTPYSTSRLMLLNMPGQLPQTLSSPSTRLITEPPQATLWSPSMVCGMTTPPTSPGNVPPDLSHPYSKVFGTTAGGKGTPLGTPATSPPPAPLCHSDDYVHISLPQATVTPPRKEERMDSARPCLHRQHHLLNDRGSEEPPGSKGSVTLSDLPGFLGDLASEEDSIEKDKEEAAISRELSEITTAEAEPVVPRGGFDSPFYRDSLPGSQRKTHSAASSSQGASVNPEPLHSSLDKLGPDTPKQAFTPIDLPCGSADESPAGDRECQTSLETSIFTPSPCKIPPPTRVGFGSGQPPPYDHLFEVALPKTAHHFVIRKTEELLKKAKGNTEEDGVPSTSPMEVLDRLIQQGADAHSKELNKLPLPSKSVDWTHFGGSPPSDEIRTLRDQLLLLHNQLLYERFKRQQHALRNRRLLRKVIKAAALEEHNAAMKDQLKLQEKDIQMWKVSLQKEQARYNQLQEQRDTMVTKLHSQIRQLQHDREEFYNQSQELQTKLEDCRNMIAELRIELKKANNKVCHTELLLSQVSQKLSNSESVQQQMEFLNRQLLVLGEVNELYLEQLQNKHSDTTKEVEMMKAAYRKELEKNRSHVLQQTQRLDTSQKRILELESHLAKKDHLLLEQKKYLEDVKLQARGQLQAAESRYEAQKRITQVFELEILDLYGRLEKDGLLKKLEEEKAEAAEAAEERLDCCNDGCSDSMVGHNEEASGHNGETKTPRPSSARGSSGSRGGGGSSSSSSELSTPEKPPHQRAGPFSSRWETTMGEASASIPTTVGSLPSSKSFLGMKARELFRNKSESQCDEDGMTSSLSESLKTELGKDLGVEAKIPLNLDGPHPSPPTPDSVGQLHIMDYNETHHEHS
The experiment is described as follows: co-IP.

Results are given in words; binding and its absence hold for the method and conditions named. In cells and extracts the contact can be indirect. Some results given as binding are weak or reduced against the parent protein; the word gives no strength.

B1: TSC1 (rat brain) (protein, UniProt Q9Z136 1-1163)
chain: MAQLANIGELLSMLDSSTLGVRDDVTTIFKESLNSERGPMLVNTLVDYYLETNSQPVLHILTTLQEPHDKHLLDKMNEYVGKAATRLSILSLLGHVVRLQPSWKHKLSQAPLLPSLLKCLKMDTDVVVLTTGVLVLITMLPMIPQSGKQHLLDFFDIFGRLSSWCLKKPGHVTEVYLVHLHASVYALFHRLYGMYPCNFVSFLRSHYSMKENVETFEEVVKPMMEHVRIHPELVTGSKDHELDPRRWKTLETHDVVIECAKISLDPTEASYEDGDAVSHQLSACFPHRSADVTTSSYVDTQNSYGGATSTPSSTSRLMLFSTPGQLPQSLSSLSTRPLPEPLQASLWSPSAVCGMTTPPTSPGNVPADLSHPYSKAFGTTTGGKGTPSGTPATSPPPAPPCPQDDCAHGPASQASATPPRKEERADSSRPYLPRQQDVPSDRGLEDLPGSKGSVTLRNLPDFLGDLASEEDSIEKDKEEAAISKELSEITTAEADPVAPRGGFDSPFYRDSLSGSQRKTHSAASGTQGFSVNPEPLHSSLDKHGPDTPKQAFTPIDPPSGSADASPAGDRDRQTSLETSILTPSPCKIPPQRGVSFGSGQLPPYDHLFEVALPKTACHFVSKKTEELLKKAKGNPEEDCVPSTSPMEVLDRLLEQGAGAHSKELSRLSLPSKSVDWTHFGGSPPSDEIRTLRDQLLLLHNQLLYERFKRQQHALRNRRLLRKVIRAAALEEHNAAMKDQLKLQEKDIQMWKVSLQKEQARYSQLQQQRDTMVTQLHSQIRQLQHDREEFYNQSQELQTKLEDCRSMIAELRVELKKANSKVCHTELLLSQVSQKLSNSESVQQQMEFLNRQLLVLGEVNELYLEQLQSKHPDTTKEVEMMKTAYRKELEKNRSHLLQQNQRLDASQRRVLELESLLAKKDHLLLEQKKYLEDVKSQASGQLLAAESRYEAQRKITRVLELEILDLYGRLEKDGRLQKLEEDRAEAAEAAEERLDCCTDGCSDSLLGHNEEAAGHNGETRTSRPGGTRASCGGRVTGGSSSSSSELSTPEKPPNQRFSSRWEPTMGEPSSSIPTTVGSLPSSKSFLGMKTRELFRNKSESQCDEDGMTMSSFSETLKTELGKDSAGMENKTPPSLDAPHPSSPSSDSMGQLHIMDYNETHHEHS
B1: the binding entry in experiment [1] is given as “binds”.

B2: TBC1D7 (protein, UniProt Q9P0N9 1-293)
chain: MTEDSQRNFRSVYYEKVGFRGVEEKKSLEILLKDDRLDTEKLCTFSQRFPLPSMYRALVWKVLLGILPPHHESHAKVMMYRKEQYLDVLHALKVVRFVSDATPQAEVYLRMYQLESGKLPRSPSFPLEPDDEVFLAIAKAMEEMVEDSVDCYWITRRFVNQLNTKYRDSLPQLPKAFEQYLNLEDGRLLTHLRMCSAAPKLPYDLWFKRCFAGCLPESSLQRVWDKVVSGSCKILVFVAVEILLTFKIKVMALNSAEKITKFLENIPQDSSDAIVSKAIDLWHKHCGTPVHSS
As to B2, the binding result with TSC1 (human) is listed as “binds”.
